Results are given in words; binding and its absence hold for the method and conditions named.
Tests used:
[1] = target: Human LH2 recombinant protein (residues 33-758) L735D (human) (UniProt O00469); experiment: SEC-MALS; Human LH2 proteins, 2 mg/ml, 100 ul, Superdex 200; 20 mM Tris pH 8, 200 mM NaCl, 0.02% sodium azide, room temperature; both purified
[2] = target: Human LH2 recombinant protein (residues 33-758) D689A (human) (UniProt O00469); experiment: as above

Row | Binder | binding [1] | binding [2]
1 | Human LH2 recombinant protein (residues 33-758) L735D (enzyme, UniProt O00469-2 33-758) SIPTDKLLVITVATKESDGFHRFMQSAKYFNYTVKVLGQGEEWRGGDGINSIGGGQKVRLMKEVMEHYADQDDLVVMFTECFDVIFAGGPEEVLKKFQKANHKVVFAADGILWPDKRLADKYPVVHIGKRYLNSGGFIGYAPYVNRIVQQWNLQDNDDDQLFYTKVYIDPLKREAINITLDHKCKIFQTLNGAVDEVVLKFENGKARAKNTFYETLPVAINGNGPTKILLNYFGNYVPNSWTQDNGCTLCEFDTVDLSAVDVHPNVSIGVFIEQPTPFLPRFLDILLTLDYPKEALKLFIHNKEVYHEKDIKVFFDKAKHEIKTIKIVGPEENLSQAEARNMGMDFCRQDEKCDYYFSVDADVVLTNPRTLKILIEQNRKIIAPLVTRHGKLWSNFWGALSPDGYYARSEDYVDIVQGNRVGVWNVPYMANVYLIKGKTLRSEMNERNYFVRDKLDPDMALCRNAREMTLQREKDSPTPETFQMLSPPKGVFMYISNRHEFGRLLSTANYNTSHYNNDLWQIFENPVDWKEKYINRDYSKIFTENIVEQPCPDVFWFPIFSEKACDELVEEMEHYGKWSGGKHHDSRISGGYENVPTDDIHMKQVDLENVWLHFIREFIAPVTLKVFAGYYTKGFALLNFVVKYSPERQRSLRPHHDASTFTINIALNNVGEDFQGGGCKFLRYNCSIESPRKGWSFMHPGRDTHLHEGLPVKNGTRYIAVSFIDP | no binding (tested: 2 mg ml^-1 injected) | 
2 | Human LH2 recombinant protein (residues 33-758) D689A (enzyme, UniProt O00469-2 33-758) SIPTDKLLVITVATKESDGFHRFMQSAKYFNYTVKVLGQGEEWRGGDGINSIGGGQKVRLMKEVMEHYADQDDLVVMFTECFDVIFAGGPEEVLKKFQKANHKVVFAADGILWPDKRLADKYPVVHIGKRYLNSGGFIGYAPYVNRIVQQWNLQDNDDDQLFYTKVYIDPLKREAINITLDHKCKIFQTLNGAVDEVVLKFENGKARAKNTFYETLPVAINGNGPTKILLNYFGNYVPNSWTQDNGCTLCEFDTVDLSAVDVHPNVSIGVFIEQPTPFLPRFLDILLTLDYPKEALKLFIHNKEVYHEKDIKVFFDKAKHEIKTIKIVGPEENLSQAEARNMGMDFCRQDEKCDYYFSVDADVVLTNPRTLKILIEQNRKIIAPLVTRHGKLWSNFWGALSPDGYYARSEDYVDIVQGNRVGVWNVPYMANVYLIKGKTLRSEMNERNYFVRDKLDPDMALCRNAREMTLQREKDSPTPETFQMLSPPKGVFMYISNRHEFGRLLSTANYNTSHYNNDLWQIFENPVDWKEKYINRDYSKIFTENIVEQPCPDVFWFPIFSEKACDELVEEMEHYGKWSGGKHHDSRISGGYENVPTDDIHMKQVDLENVWLHFIREFIAPVTLKVFAGYYTKGFALLNFVVKYSPERQRSLRPHHAASTFTINIALNNVGEDFQGGGCKFLRYNCSIESPRKGWSFMHPGRLTHLHEGLPVKNGTRYIAVSFIDP |  | no binding (tested: 2 mg ml^-1 injected)

Source: paper PMC5802723, “Pro-metastatic collagen lysyl hydroxylase dimer assemblies stabilized by Fe^2+-binding” (Nature Communications, 2018)
